Values of other authors as cited in patent US20140134253A1, “DRY POWDER FOSFOMYCIN/TOBRAMYCIN FORMULATION FOR INHALATION” (Gilead Sciences, Inc., priority 2011, published 2014).

Test system: P. aeruginosa
Conditions: susceptible P. aeruginosa; cited from earlier work

NC[C@H]1O[C@H](O[C@H]2[C@H](O)[C@@H](O[C@H]3O[C@H](CO)[C@@H](O)[C@H](N)[C@H]3O)[C@H](N)C[C@@H]2N)[C@H](N)C[C@@H]1O [tobramycin, Tobramycin]
MIC: less than 2 μg/mL
